# Values from PubChem BioAssay AID504764 (Drosophila RNAi Screening Center, 2011).
# Assay: 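Genes whose knock-down alters Notch-dependent transcription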 (primary screen)
# System: Drosophila Kc167 cells
# Knock-down reagent: long dsRNA against Drosophila genes
# Timing: about 5 days (4 days dsRNA, then 24 h after transfection)
# Conditions: transfection of constitutively active membrane-tethered Notch lacking the extracellular domain, read 24 h later
# Detection: 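Firefly luciferase from an E(spl)m3 reporter with active Notch, plus control-promoter and uninduced reporter wells for normalisation; unnormalised counts, duplicate wells a and b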
# Scale: induced reporter light, run 1, well a and induced reporter light, run 1, well b: higher = more light from the Notch target reporter with active Notch; control promoter light, run 1, well a and control promoter light, run 1, well b: higher = more light from the viral control promoter (cell number, transfection, viability); uninduced reporter light, run 1, well a: higher = more light from the Notch target reporter without active Notch
# Rule for the call: 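Hit if the duplicate-averaged log2 ratio of induced to control-promoter light gives a plate-wise z beyond ±2, or induced to uninduced beyond ±1.8; weak-control or discordant-duplicate wells dropped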
# Meaning of the calls: active = modifier hit (raised or lowered Notch signal); inactive = not a hit
# In all, the deposit lists about 22,000 reagents; this is an unselected part of those with a known target gene and a result. Over the whole deposit, 403 (1.9%) were called active. 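Unnormalised raw counts per well; ratio z-scores behind the hit calls and whether each hit raises or lowers signal are not deposited.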 Entries without a mark were called inactive. Reagents against one gene are numbered here. Not given: the amount of reagent.
target,dsRNA no.,"induced reporter light, run 1, well a","induced reporter light, run 1, well b","control promoter light, run 1, well a","control promoter light, run 1, well b","uninduced reporter light, run 1, well a"
CG12481,1,84505,74345,99890,86275,13375
ebd2,1,1.18e5,89890,1.20e5,96920,6630
CG4955,1,1.49e5,1.17e5,1.03e5,49385,11350
Tollo,1,1.88e5,2.52e5,2.63e5,2.35e5,9590
Ppt1,1,1.30e5,1.44e5,2.28e5,2.55e5,9760
CG11030,1,1.43e5,1.22e5,1.45e5,95665,7140
Sk2,1,60975 (active),99120,98670,56465,13180
Mlp60A,1,1.35e5,1.08e5,1.61e5,1.39e5,9265
Ced-12,1,1.84e5,1.76e5,2.00e5,2.20e5,18630
CG33233,1,1.10e5,1.18e5,1.81e5,2.91e5,9425
CG8746,1,1.22e5,1.47e5,1.56e5,1.43e5,13330
E(spl)m2-BFM,1,15680,14205,13075,12725,4070
eag,1,89655,97970,96975,95860,8035
eag,2,88660,79780,81785,74455,11688
Pkcdelta,1,1.01e5,91855,1.23e5,98015,6030
Pkcdelta,2,47495 (active),47095,32425,41125,3220
CG3348,1,1.61e5,1.30e5,1.78e5,1.92e5,11510
CG13043,1,1.19e5,1.42e5,1.52e5,1.29e5,8800
RhoGAP54D,1,27170,19785,21825,22610,2985
Trhn,1,94715,85540,1.98e5,1.84e5,9760
CG4133,1,19670,22232,25350,11910,4650
Sgsh,1,2.10e5,1.83e5,2.36e5,2.54e5,17295
CG8545,1,1.20e5,97270,1.02e5,1.06e5,7510
CenB1A,1,2.03e5,1.86e5,2.26e5,2.32e5,16310
CG17234,1,1.09e5,1.21e5,82010,54085,8392
CG18563,1,1.38e5,1.34e5,1.54e5,1.82e5,11000
Sk1,1,95385,86560,1.35e5,1.33e5,7050
Cep164,1,71590,69685,98085,73425,12075
Sting,1,2.64e5,2.25e5,2.32e5,2.61e5,21200
CG11404,1,95710,1.26e5,1.26e5,1.00e5,8855
ppan,1,1.53e5,1.52e5,2.17e5,1.95e5,14170
PGRP-SB2,1,2.40e5,2.42e5,3.11e5,2.36e5,9570
CG3841,1,1.01e5,1.22e5,59530,70235,13692
Ype,1,1.09e5,1.16e5,1.33e5,1.20e5,8085
CG1304,1,88535,81660,1.29e5,1.44e5,11175
CG14687,1,63910,67285,63980,42915,3515
DCTN4-p62,1,2.13e5,1.94e5,2.53e5,2.04e5,18870
AttD,1,1.72e5,1.63e5,2.50e5,2.28e5,11988
Loxl1,1,1.42e5,1.46e5,2.33e5,2.82e5,10938
CG11309,1,1.27e5,1.26e5,89785,90180,9920
PAPLA1,1,62655 (active),82790,44475,50795,5350
PAPLA1,2,1.52e5,1.68e5,1.13e5,1.42e5,19310
Tes,1,1.13e5,1.07e5,98010,78360,9430
cos,1,1.87e5,1.69e5,1.73e5,1.80e5,14710
CG10286,1,1.33e5,1.02e5,86135,74710,9575
RhoGAPp190,1,1.18e5,92155,88505,1.04e5,15038
RhoGAPp190,2,1.30e5,96770,92255,46720,8665
CheA86a,1,2.03e5,1.25e5,2.05e5,1.45e5,10675
Bicra,1,47980,45175,70110,83290,7800
CG16717,1,2.03e5,1.71e5,2.27e5,1.50e5,9875

Entries listed above marked active (3):
target,dsRNA no.,"induced reporter light, run 1, well a","induced reporter light, run 1, well b","control promoter light, run 1, well a","control promoter light, run 1, well b","uninduced reporter light, run 1, well a"
Sk2,1,60975 (active),99120,98670,56465,13180
Pkcdelta,2,47495 (active),47095,32425,41125,3220
PAPLA1,1,62655 (active),82790,44475,50795,5350
